This list holds what a sample rich in hits left over. Calls of active or inactive are those of the source. No rule for the calls is given here.
Assay: Mycobacterium tuberculosis H37Rv growth inhibition, confirmatory dose response, cytotoxicity (AID 1332);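 as to IC50: bacteria incubated 7 days before adding Alamar blue readout reagent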
Conditions: M. tuberculosis H37Rv growth inhibition; measured here: IC50 H37Rv replicates

Structure (SMILES) | IC50 [mg/L] | outcome
CN1[C@@H]2CC[C@H]1CC(OC(=O)C(O)c1ccccc1)C2 (some centres not stated) | > 20 | inactive

— PubChem BioAssay AID1332 (Southern Research Institute, 2008)
